Data: doi:10.1101/2024.06.18.599616
These are yes or no findings as the source states them, for the method shown. In cells and extracts the contact can be indirect. Some entries that bind do so weakly or less than the wild type. Values belong to the substance of their own block, whether it stands above or below them.

Sequences of proteins named here, by UniProt entry; tags and fusion partners are left off. A change or cut given only in a name is not applied to a line headed by its entry.
UniProt Q09472: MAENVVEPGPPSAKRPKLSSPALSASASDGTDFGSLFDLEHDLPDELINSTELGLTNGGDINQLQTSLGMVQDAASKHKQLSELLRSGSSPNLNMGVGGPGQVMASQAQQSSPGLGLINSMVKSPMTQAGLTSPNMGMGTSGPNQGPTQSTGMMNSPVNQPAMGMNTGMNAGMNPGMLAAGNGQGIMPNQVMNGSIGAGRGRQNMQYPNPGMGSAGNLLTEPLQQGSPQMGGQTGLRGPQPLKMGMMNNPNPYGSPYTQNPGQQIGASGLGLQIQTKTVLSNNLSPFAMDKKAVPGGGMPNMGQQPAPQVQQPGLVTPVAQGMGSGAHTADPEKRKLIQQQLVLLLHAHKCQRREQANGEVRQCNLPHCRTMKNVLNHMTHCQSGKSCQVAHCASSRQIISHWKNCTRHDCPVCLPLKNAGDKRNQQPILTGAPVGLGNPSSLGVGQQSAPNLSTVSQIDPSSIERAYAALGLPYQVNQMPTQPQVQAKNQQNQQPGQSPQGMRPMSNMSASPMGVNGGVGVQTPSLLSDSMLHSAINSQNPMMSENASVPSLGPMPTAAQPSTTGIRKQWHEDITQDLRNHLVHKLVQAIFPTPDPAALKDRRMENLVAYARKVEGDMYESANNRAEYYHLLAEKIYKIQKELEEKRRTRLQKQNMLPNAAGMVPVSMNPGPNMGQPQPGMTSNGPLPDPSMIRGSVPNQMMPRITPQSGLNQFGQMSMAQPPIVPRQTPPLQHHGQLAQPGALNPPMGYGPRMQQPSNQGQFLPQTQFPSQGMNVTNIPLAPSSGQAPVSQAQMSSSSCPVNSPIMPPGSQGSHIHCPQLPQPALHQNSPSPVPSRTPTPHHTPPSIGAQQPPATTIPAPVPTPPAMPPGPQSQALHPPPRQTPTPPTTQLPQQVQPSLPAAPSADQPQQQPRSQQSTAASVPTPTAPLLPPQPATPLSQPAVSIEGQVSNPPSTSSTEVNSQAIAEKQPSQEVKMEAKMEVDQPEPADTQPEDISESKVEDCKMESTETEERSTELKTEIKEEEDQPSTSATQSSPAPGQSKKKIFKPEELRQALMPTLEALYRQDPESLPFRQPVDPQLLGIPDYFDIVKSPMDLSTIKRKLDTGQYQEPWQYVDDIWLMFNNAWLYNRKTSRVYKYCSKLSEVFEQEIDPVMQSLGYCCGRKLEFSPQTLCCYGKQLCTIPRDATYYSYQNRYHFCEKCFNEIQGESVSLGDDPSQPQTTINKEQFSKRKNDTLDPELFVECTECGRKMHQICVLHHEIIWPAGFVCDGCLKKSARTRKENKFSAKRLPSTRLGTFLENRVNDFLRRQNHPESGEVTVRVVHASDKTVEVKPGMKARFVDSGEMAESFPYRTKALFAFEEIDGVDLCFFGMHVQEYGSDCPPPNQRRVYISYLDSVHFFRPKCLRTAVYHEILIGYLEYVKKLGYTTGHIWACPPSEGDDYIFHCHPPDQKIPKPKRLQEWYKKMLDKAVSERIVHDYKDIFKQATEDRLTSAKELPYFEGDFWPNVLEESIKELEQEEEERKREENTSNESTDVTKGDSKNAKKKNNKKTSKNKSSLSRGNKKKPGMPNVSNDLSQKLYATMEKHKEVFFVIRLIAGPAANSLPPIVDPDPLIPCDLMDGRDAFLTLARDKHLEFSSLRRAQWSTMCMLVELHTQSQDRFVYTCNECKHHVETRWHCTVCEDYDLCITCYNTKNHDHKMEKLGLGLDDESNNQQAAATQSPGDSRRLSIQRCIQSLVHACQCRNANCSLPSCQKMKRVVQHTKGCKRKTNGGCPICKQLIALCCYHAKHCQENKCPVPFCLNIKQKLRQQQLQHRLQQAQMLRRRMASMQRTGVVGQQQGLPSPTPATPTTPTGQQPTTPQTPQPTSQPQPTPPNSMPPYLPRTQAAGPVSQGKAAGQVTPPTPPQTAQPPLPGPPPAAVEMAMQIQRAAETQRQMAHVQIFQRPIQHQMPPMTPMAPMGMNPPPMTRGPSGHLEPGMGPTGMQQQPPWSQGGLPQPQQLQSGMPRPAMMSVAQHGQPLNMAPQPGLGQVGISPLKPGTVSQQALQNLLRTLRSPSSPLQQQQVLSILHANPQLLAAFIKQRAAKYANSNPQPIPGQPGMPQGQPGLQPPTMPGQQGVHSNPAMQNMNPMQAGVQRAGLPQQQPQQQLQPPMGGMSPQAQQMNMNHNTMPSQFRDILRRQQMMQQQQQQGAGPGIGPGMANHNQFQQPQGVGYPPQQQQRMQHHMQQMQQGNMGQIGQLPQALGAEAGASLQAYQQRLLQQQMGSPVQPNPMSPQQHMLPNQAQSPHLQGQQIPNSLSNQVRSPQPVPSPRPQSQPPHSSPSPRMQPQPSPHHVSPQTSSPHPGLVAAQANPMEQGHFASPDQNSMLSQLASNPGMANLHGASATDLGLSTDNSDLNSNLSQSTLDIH
UniProt Q9UF56: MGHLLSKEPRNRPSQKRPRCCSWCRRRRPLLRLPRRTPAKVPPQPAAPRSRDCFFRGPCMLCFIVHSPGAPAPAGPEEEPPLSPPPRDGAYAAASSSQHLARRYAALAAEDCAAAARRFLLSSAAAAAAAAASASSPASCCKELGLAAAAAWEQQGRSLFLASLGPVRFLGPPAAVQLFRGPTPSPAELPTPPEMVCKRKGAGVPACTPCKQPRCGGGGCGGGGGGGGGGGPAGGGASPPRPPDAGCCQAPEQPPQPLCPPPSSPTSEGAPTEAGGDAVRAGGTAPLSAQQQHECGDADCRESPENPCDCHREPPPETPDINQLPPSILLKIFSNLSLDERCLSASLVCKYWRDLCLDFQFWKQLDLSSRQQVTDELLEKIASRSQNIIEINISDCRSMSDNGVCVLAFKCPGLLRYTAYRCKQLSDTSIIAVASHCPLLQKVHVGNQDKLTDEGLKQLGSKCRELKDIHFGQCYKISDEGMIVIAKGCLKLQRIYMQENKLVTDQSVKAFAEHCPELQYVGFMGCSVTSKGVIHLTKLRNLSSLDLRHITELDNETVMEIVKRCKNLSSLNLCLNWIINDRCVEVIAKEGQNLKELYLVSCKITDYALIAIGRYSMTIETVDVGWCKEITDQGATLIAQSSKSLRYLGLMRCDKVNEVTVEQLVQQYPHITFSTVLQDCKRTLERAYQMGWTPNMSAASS
UniProt Q99873: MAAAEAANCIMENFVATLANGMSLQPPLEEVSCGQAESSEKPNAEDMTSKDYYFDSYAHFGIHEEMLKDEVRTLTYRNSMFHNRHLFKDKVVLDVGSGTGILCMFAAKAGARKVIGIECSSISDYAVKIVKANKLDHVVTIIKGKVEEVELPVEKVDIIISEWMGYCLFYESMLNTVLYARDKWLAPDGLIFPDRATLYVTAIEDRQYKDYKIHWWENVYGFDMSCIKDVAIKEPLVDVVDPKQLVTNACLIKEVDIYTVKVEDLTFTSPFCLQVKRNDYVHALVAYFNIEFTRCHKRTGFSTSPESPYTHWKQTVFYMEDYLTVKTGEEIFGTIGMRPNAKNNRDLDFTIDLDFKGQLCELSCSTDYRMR

How the values were obtained:
Experiment in all cases: co-IP
[1] = molecular target: PRMT1^228TAG (PRMT1 with acetyl-lysine incorporated at K228 by genetic code expansion) (human)
[2] = molecular target: Human PRMT1 with a C-terminal FLAG epitope tag (FLAG-tagged PRMT1) (human)
[3] = molecular target: Myc-tagged p300 (UniProt Q09472)

binding [1]: binds
Substance: FBXL17 (as in the co-immunoprecipitation with the genetic code expansion variants, Fig. 5G) (from UniProt Q9UF56 1-701)

binding [2]: binds
Substance: endogenous p300 (from UniProt Q09472 1-2414) (enzyme)

binding [3]: binds
Substance: endogenous PRMT1 (from UniProt Q99873 1-371) (enzyme)
